These are yes or no findings as the source states them, for the method shown. Binding seen in cells or lysates may run through a third protein. Some entries that bind do so weakly or less than the wild type.
Biological target: V-ATPase V1A1 protein (human (endogenous in HeLa)) (UniProt P38606)
Test: co-IP; HeLa lysate in RIPA buffer with protease inhibitors; rabbit anti-V1A1 antibodies 2 ug per mg protein, 4 C, 4 h; protein A sepharose beads; washed three times with PBS containing 0.5% NP-40; Western blot for V1A1 and V0a3; normal rabbit IgG as negative control

Chains of the proteins cited; added tags and fusions are not shown.
UniProt P38606: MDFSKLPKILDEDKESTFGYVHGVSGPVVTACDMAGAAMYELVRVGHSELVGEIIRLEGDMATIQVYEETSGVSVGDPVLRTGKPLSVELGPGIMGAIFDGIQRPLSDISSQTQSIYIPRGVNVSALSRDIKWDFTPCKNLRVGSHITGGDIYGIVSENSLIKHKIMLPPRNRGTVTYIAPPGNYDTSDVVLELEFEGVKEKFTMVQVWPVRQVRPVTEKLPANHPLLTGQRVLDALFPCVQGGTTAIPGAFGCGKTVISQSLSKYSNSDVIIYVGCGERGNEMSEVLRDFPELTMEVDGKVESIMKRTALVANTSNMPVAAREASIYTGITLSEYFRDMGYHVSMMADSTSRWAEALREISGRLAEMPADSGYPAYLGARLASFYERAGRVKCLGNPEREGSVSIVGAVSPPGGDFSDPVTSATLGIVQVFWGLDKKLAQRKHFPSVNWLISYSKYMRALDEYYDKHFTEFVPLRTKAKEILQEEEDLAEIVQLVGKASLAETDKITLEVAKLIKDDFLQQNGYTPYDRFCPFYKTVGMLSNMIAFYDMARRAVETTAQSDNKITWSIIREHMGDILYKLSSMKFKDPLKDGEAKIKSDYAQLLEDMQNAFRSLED
UniProt Q13488: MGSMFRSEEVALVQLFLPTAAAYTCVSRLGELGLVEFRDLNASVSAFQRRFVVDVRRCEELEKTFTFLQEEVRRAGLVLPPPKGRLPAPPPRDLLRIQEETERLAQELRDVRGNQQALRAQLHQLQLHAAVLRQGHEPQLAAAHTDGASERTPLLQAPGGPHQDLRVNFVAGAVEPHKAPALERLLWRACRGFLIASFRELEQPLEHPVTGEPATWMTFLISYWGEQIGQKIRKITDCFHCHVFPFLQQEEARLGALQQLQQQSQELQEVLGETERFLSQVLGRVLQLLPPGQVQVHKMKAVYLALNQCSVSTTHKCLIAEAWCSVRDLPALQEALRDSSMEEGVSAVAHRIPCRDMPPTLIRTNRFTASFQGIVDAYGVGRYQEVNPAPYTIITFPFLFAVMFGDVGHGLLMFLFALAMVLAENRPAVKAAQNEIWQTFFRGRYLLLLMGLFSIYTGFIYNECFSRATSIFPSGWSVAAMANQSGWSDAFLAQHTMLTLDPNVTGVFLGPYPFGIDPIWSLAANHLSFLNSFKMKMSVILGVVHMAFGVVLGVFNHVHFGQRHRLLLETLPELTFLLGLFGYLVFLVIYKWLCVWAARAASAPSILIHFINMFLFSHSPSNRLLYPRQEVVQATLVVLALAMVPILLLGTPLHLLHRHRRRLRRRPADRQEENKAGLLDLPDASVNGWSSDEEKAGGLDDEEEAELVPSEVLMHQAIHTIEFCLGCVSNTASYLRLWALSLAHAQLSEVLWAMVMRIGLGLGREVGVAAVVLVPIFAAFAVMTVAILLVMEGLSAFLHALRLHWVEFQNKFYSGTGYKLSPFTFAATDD

- binding: binds
Substance: V-ATPase V0a3 protein (from UniProt Q13488 1-830)
